In PMC10177328, “High Intrinsic Oncogenic Potential in the Myc-Box-Deficient Hydra Myc3 Protein”:
Construct, isoform or probe ends are uncertain for at least one entry. At least one verdict was read from the data and is not stated in words by the source. Tags and fusion partners may be left off the protein sequences shown.

Target: T1, Hydra Max bHLH-LZ (p13) (UniProt D0EM50)
T1 sequence (looked up): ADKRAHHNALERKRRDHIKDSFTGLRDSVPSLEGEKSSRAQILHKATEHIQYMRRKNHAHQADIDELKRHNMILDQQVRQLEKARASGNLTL
Assay: EMSA
Conditions: homodimer, 2 uM protein; EMSA: 10 mM Tris-HCl pH 7.5, 0.5 mM EDTA, 65 mM KCl, 5 mM MgCl2, 1 mM DTT, 100 ug/mL BSA, 10% glycerol, 25 C, 45 min; native 6% PAGE; recombinant protein; residues 29-120; protein details: N-terminal initiator Met, C-terminal His6; label: 32P

ATAGCTCACGTGTCAATA (double strand) [myc2 promoter E-box 18-mer]
binding result: binds
